Results are given in words; binding and its absence hold for the method and conditions named.

The target in the experiment is Acs1 R264W (acs1^R264W) (S. cerevisiae) (UniProt Q01574). In words: cryo-electron tomography.

B1: Acs1 R264W (acs1^R264W) (enzyme, UniProt Q01574 1-713)
chain: MSPSAVQSSKLEEQSSEIDKLKAKMSQSAATAQQKKEHEYEHLTSVKIVPQRPISDRLQPAIATHYSPHLDGLQDYQRLHKESIEDPAKFFGSKATQFLNWSKPFDKVFIPDPKTGRPSFQNNAWFLNGQLNACYNCVDRHALKTPNKKAIIFEGDEPGQGYSITYKELLEEVCQVAQVLTYSMGVRKGDTVAVYMPMVPEAIITLLAISRIGAIHSVVFAGFSSNSLRDRINDGDSKVVITTDESNRGGKVIETKRIVDDALWETPGVRHVLVYRKTNNPSVAFHAPRDLDWATEKKKYKTYYPCTPVDSEDPLFLLYTSGSTGAPKGVQHSTAGYLLGALLTMRYTFDTHQEDVFFTAGDIGWITGHTYVVYGPLLYGCATLVFEGTPAYPNYSRYWDIIDEHKVTQFYVAPTALRLLKRAGDSYIENHSLKSLRCLGSVGEPIAAEVWEWYSEKIGKNEIPIVDTYWQTESGSHLVTPLAGGVTPMKPGSASFPFFGIDAVVLDPNTGEELNTSHAEGVLAVKAAWPSFARTIWKNHDRYLDTYLNPYPGYYFTGDGAAKDKDGYIWILGRVDDVVNVSGHRLSTAEIEAAIIEDPIVAECAVVGFNDDLTGQAVAAFVVLKNKSSWSTATDDELQDIKKHLVFTVRKDIGPFAAPKLIILVDDLPKTRSGKIMRRILRKILAGESDQLGDVSTLSNPGIVRHLIDSVKL
Take B1: the binding entry is listed as “no binding”.

The values above are taken from publication doi:10.1101/2024.03.26.586525 (bioRxiv, 2024).
